From PubChem BioAssay AID493014 (National Center for Advancing Translational Sciences (NCATS), 2011)
About 170 (0.05%) of roughly 340,000 compounds were called active. Inconclusive means that the source gave no clear call. Such entries were picked first, then a sample of the others. Calls come from the whole dose curve; as a rule, active = well fitted inhibition curve with a large enough effect in the signal ratio, with a control signal flat (not every such curve was filed as active); inconclusive = small, poorly fitted or top-dose-only effect, or effect the other way, or a change in a side signal; inactive = flat fitted curve, though single readings scatter; the % refers to the signal ratio. A potency beside an inconclusive call is a rough fit, not a confirmed value.

Experiment: qHTS Assay to Find Inhibitors of Chronic Active B-Cell Receptor Signaling;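 for activity change, negative = inhibition: plate controls were basal doxycycline-induced cells for no effect and cells given 10 µM MG132 for full effect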
Settings: ABC-DLBCL IkBa-CBG/CBR reporter, luminescence ratio (green luciferase fused to IkBa over red control in TMD8 lymphoma cells), 4 h; activity change, negative = inhibition: at 46.1 µM (top of the series) unless noted
How it was run: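 Compounds up to 46 uM were incubated four hours with TMD8 cells whose green CBG68 luciferase is fused to IkappaBalpha; red CBR luminescence normalised the signal, and concentration-effect curves were fitted to fusion, red and ratio data.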
Potency is the fitted concentration of half-maximal effect.

Q: With `CN(C)CCCNCC(=O)Nc1ccccc1N1CCOCC1` as the compound, how does the “activity change, negative = inhibition” value read?
A: inactive: -0.365%

Q: For `C=CC(=O)Nc1cccc(Oc2ncnc3[nH]cc(-c4cnc5ccccc5c4)c23)c1`, which Potency is on record?
A: inconclusive: 2.91 µM [falling, full curve]

Q: With `CCOC(=O)/C(=C\C=C\N1CCOCC1)C(C)=O` as the compound, how does the activity change, negative = inhibition read?
A: inconclusive: -1.76%

Q: For `Cc1ccc(NC(=O)Cn2c(O)c(N=NC(=O)c3cc([N+](=O)[O-])ccc3O)c3ccccc32)cc1`, which activity change, negative = inhibition is on record?
A: inconclusive: 272%

Q: For `COc1ccc(OC)c(S(=O)(=O)N2CCC3(CC2)OCCN3S(=O)(=O)c2ccccc2)c1`, which activity change, negative = inhibition is on record?
A: inconclusive: 1.05%

Q: With `CC(C)(C)OC(=O)C1=C(CO)CS[C@@H]2[C@H](NC(=O)Cc3ccccc3)C(=O)N12` as the compound, how does the activity change, negative = inhibition read?
A: inconclusive: 5.55%

Q: Which “activity change, negative = inhibition” value does the source give for `COc1ccc2c(c1)C(NC(C)=O)C(=O)N2C` (stereo not drawn) here?
A: inactive: 1.28%

Q: For `CC(C)(C)c1ccc(S(=O)(=O)Nc2ccc3c(c2)COC3=O)cc1`, which “activity change, negative = inhibition” value is on record?
A: inactive: -1.6%

Q: For `CCN(CC)c1ccc(/C=N/NC(=O)c2c(Cl)cnn2C)c(O)c1`, which Potency is on record?
A: inconclusive: 5.8 µM [falling, partial curve]

Q: Which “activity change, negative = inhibition” value does the source give for `FC(F)(F)c1cnc(Sc2nc3nccc(-c4ccc(Cl)cc4)n3n2)c(Cl)c1` here?
A: inactive: 6.57%

Q: For `Oc1cccc(/C=N/c2c(-c3ccco3)nc3ccccn23)c1`, which activity change, negative = inhibition is on record?
A: inconclusive: 2.57%

Q: Which activity change, negative = inhibition does the source give for `COc1ccc(-c2nnn(CC(=O)N3CCN(c4ccccc4OC)CC3)n2)cc1OC` here?
A: inconclusive: -3.15%

Q: Which activity change, negative = inhibition does the source give for `CCCN(CC(=O)Nc1ccccc1OC)C(=O)CN1C(=O)NC2(CCCCC2)C1=O` here?
A: inconclusive: 3.77%

Q: For `Cc1c(C(=O)Nc2ccc(F)cc2)oc2ccc(S(=O)(=O)N3CCC4(CC3)OCCO4)cc12`, which activity change, negative = inhibition is on record?
A: inconclusive: 1.7%

Q: With `CN(C(=O)C1CCC(=O)N(Cc2cccc(F)c2)C1)C1CCCCC1` (stereo not drawn) as the compound, how does the “activity change, negative = inhibition” value read?
A: inactive: 6.62%

Q: Which activity change, negative = inhibition does the source give for `CCOC(=O)C1(Cc2cccc(Cl)c2)CCCN(C(=O)c2ccc(C)nc2)C1` (stereo not drawn) here?
A: inconclusive: 5.97%

Q: With `COc1ccccc1-c1cc2nc(C)cc(C)n2n1` as the compound, how does the Potency read?
A: inconclusive: 35.5 µM [falling, single point]

Q: With `COc1ccc(NS(=O)(=O)c2cccc(C(=O)NCC(c3ccc(OC)cc3)N3CCCC3)c2)cc1` (stereo not drawn) as the compound, how does the activity change, negative = inhibition read?
A: inconclusive: 10%

Q: With `O=C(Nc1nnc(C2CC2)s1)c1ccccn1` as the compound, how does the Potency read?
A: inconclusive: 35.5 µM [falling, single point]

Q: Which “activity change, negative = inhibition” value does the source give for `O=P(CCCO)(Cc1ccccc1)Cc1ccccc1` here?
A: inactive: 3.19%

Q: With `NC(=O)c1ccccc1NC(=O)c1ccc2ccccc2c1` as the compound, how does the Potency read?
A: inconclusive: 22.4 µM [falling, partial curve]

Q: For `Nc1ccccc1C(=O)N1CCc2ccccc21`, which Potency is on record?
A: inconclusive: 12.6 µM [falling, partial curve]

Q: With `COc1cccc(/C=C2\SC(=O)N(CCC(=O)NNC(=O)c3cccc(Cl)c3)C2=O)c1` as the compound, how does the Potency read?
A: inconclusive: 16.4 µM [falling, partial curve]

Q: Which activity change, negative = inhibition does the source give for `CSc1ccc(/C=N\NC(=O)COc2ccc(Cl)cc2Br)cc1` here?
A: inconclusive: 1.78%

Q: Which Potency does the source give for `CC(C)Oc1cccc(C(=O)NC(=S)Nc2cccnc2)c1` here?
A: inconclusive: 23.1 µM [falling, partial curve]

Q: Which Potency does the source give for `CC(c1cccs1)N(Cc1ccco1)C(=S)Nc1ccc(F)c(Cl)c1` (stereo not drawn) here?
A: inconclusive: 14.1 µM [rising, partial curve, poor fit]

Q: For `C/C=C/C(=O)N1CC2(CC(c3cccc(NC(=O)CC(c4ccccc4)c4ccccc4)c3)=NO2)C[C@H]1C(N)=O` (stereo partly drawn), which activity change, negative = inhibition is on record?
A: inconclusive: 0.661%

Q: For `O=C(O)CCc1ccc(-c2cccs2)n1Cc1ccco1`, which activity change, negative = inhibition is on record?
A: inconclusive: 16.1%

Q: Which activity change, negative = inhibition does the source give for `N[C@@H](Cc1ccccc1)c1nnc(SCc2ccccc2Cl)o1` here?
A: inconclusive: 6.45%

Q: For `CCOc1ccc(NC(=O)Nc2cc(-c3ccccc3)sc2C(=O)OC)cc1`, which “activity change, negative = inhibition” value is on record?
A: inactive: 15%

Q: Which “activity change, negative = inhibition” value does the source give for `CCCCCCCNC(=O)C1(CC2CC(c3cccc(Br)c3)=NO2)CCN(C(=O)c2ccccc2)CC1` (stereo not drawn) here?
A: inactive: 0.463%

Q: With `CCCCCCN(C(=O)CCl)c1ccccc1` as the compound, how does the activity change, negative = inhibition read?
A: inconclusive: -21.7%

Q: For `CN(CC(=O)Nc1c(Cl)cccc1Cl)C(=O)c1cccc(-n2cccc2)c1`, which “activity change, negative = inhibition” value is on record?
A: inactive: 3.14%

Q: With `CCCCN1C(=O)C2Cc3c([nH]c4ccccc34)CN2C1=S` (stereo not drawn) as the compound, how does the activity change, negative = inhibition read?
A: inconclusive: -27%

Q: For `Cc1cc(C)nc(NC(=O)c2ccc(Cl)cc2)n1`, which activity change, negative = inhibition is on record?
A: inconclusive: -5.46%

Q: For `Cc1ccc(-n2c(SCC(=O)OC(C)C)nnc2-c2cnccn2)cc1`, which activity change, negative = inhibition is on record?
A: inconclusive: 2.66%

Q: With `CCc1nnc(NC(=O)CSc2nccn2-c2cccc(C)c2C)s1` as the compound, how does the Potency read?
A: inconclusive: 35.5 µM [falling, single point]

Q: With `Cc1ccc(NC(=O)COC(=O)Cn2cnc3c2c(=O)n(C)c(=O)n3C)c(Cl)c1` as the compound, how does the “activity change, negative = inhibition” value read?
A: inactive: -1.6%

Q: For `Cc1cc(N2CCN(C)CC2)ccc1NC(=O)c1c2c(nc3ccccc13)CCN(Cc1ccccc1)C2`, which activity change, negative = inhibition is on record?
A: inconclusive: 3.51%

Q: With `O=C(NCCc1ccncc1)C12CC3CC(CC(C3)C1)C2` as the compound, how does the activity change, negative = inhibition read?
A: inconclusive: -9.82%

Q: Which activity change, negative = inhibition does the source give for `C/C(Cl)=C\Cn1c(Nc2ccccc2)nc2c1c(=O)n(C)c(=O)n2C` here?
A: inconclusive: 2%

Q: With `CC(OC(=O)c1ccc(NC(=O)CC#N)cc1)C(=O)Nc1ccc2c(c1)OCCO2` (stereo not drawn) as the compound, how does the Potency read?
A: inconclusive: 18.4 µM [falling, partial curve]

Q: Which activity change, negative = inhibition does the source give for `CCSC1=C(C#N)C(c2ccc(Cl)cc2)C2=C(CCCC2=O)N1` (stereo not drawn) here?
A: inconclusive: 2.82%

Q: For `CCCS(=O)(=O)N1CCC(C(=O)NCCN2CCCC2)CC1`, which activity change, negative = inhibition is on record?
A: inconclusive: 3.2%

Q: For `CCOc1cc(/C=N\NC(N)=O)cc(Br)c1OC(C)C`, which activity change, negative = inhibition is on record?
A: inconclusive: -13.4%

Q: With `Cc1ccc(/C=N/NC(=O)c2csc3c2CCCC3)cc1` as the compound, how does the Potency read?
A: inconclusive: 12.6 µM [cytotoxic, partial curve]

Q: With `CC1=NN(C(=O)Cc2ccc([N+](=O)[O-])cc2)C(O)(c2cccnc2)C1` (stereo not drawn) as the compound, how does the “activity change, negative = inhibition” value read?
A: inactive: 0.738%

Q: Which “activity change, negative = inhibition” value does the source give for `COCCn1c(N)c(C(=O)NCc2cccs2)c2nc3ccccc3nc21` here?
A: inactive: 6.26%

Q: For `CCOC(=O)C1(CCOc2ccccc2)CCN(Cc2ccc(O)cc2)CC1`, which Potency is on record?
A: inconclusive: 15.8 µM [falling, single point]

Q: For `CCCCOc1cc(C)nc(NCc2ccccc2)n1`, which “activity change, negative = inhibition” value is on record?
A: inactive: 13.9%

Q: For `COc1ccc2c(c1)c1nnc(SC)nc1n2C`, which “activity change, negative = inhibition” value is on record?
A: inactive: 0.624%

Q: Which activity change, negative = inhibition does the source give for `CCCc1cc(=O)oc2c(C)c(OCC(=O)NCCN3CCOCC3)ccc12` here?
A: inconclusive: -13.2%

Q: For `COc1ccc(C2C(C#N)=C(N)Oc3cc(C)n(Cc4ccncc4)c(=O)c32)cc1` (stereo not drawn), which “activity change, negative = inhibition” value is on record?
A: inactive: 3.21%
